From patent US20210205199A1 (RPM Dermatologie, priority 2016, published 2021) come the findings set out here.

*: point of attachment. Lauroyl = CCCCCCCCCCCC(=O)*

The nature of this series: general procedure: Fmoc solid-phase peptide synthesis; Wang resin precharged with Fmoc-Pro; HOBT/DIC. The settings on record: whole synthesis, HPLC and mass spectrometry.

Regarding Lauroyl-SDKP-OH, the “final HPLC purity” value is given as “more than 90%”.
